Reference: PubChem BioAssay AID248 (DTP/NCI, 2004)
The list does not hold the whole screen: it is rich in T/C values a quarter to a half above the control, in often repeated tests (any T/C) and in doses without a T/C. Other doses and runs of a compound stand elsewhere. T/C is the treated group as % of the vehicle group. Some doses have a count of surviving animals in place of a T/C: the source files T/C as zero there, which appears to mark a toxic dose or a test without result, not a measured value. Some doses without a T/C left all or most animals alive at the check, yet need not have been tolerated: survival well below the control is almost never listed, so the zero probably covers shortened survival too. Survivors were counted at the toxicity check, usually on the fifth day, unless a day is given; later deaths do not show. Schedules are NCI's codes, taken here to give the interval after Q, in days (D) or hours (H), and the number of doses after X. Some doses were run more than once; the values are given in rising order. Signs of the kind (2×) count equal records among those shown. For survival time, this PubChem deposit counts one and a half times the control or more as active, and values a quarter to a half above the control carry no call in these data; other NCI protocols may use other cut-offs.

Tested on: L1210 leukemia ip in BDF1 mice, survival T/C
Assay: NCI In Vivo Anticancer Drug Screen. Data for tumor model L1210 Leukemia (intraperitoneal) in B6D2F1 (BDF1) mice
Conditions: T/C endpoint: median survival time, vehicle: saline, higher T/C = longer survival
[1] = dose: 160.0 mg/kg/injection, schedule: Q01DX009 (ip)

O=P1(N(CCCl)CCCl)NCCCO1 (centres undefined)
T/C (dose: 108.0 mg/kg/injection, schedule: Q07DX003 (ip), evaluated on day 46): 205 % of control
T/C (dose: 108.0 mg/kg/injection, schedule: Q07DX004 (ip), evaluated on day 7): 251 and 269 % of control
T/C (dose: 108.0 mg/kg/injection, schedule: Q07DX004 (ip), evaluated on day 60): 261 and 272 % of control
T/C (dose: 150.0 mg/kg/injection, schedule: Q07DX003 (ip), evaluated on day 7): 239, 278, 302 % of control
T/C (dose: 150.0 mg/kg/injection, schedule: Q07DX003 (ip), evaluated on day 34): 239 % of control
T/C (dose: 150.0 mg/kg/injection, schedule: Q07DX003 (ip), evaluated on day 63): 278 and 300 % of control
survivor count (dose: 160.0 mg/kg/injection, schedule: Q01DX005 (ip)): 6 of 6
T/C [1]: 93 % of control
survivor count [1]: 6 of 6 and 8 of 8 (2×)
T/C (dose: 180.0 mg/kg/injection, schedule: Q01DX001 (ip), evaluated on day 5): 177, 193, 202, 256 % of control
T/C (dose: 180.0 mg/kg/injection, schedule: Q01DX001 (ip), evaluated on day 7): 187, 190, 200, 265 % of control
T/C (dose: 180.0 mg/kg/injection, schedule: Q01DX001 (ip), evaluated on day 36): 195 % of control
T/C (dose: 180.0 mg/kg/injection, schedule: Q01DX001 (ip), evaluated on day 40): 145 % of control
T/C (dose: 180.0 mg/kg/injection, schedule: Q01DX001 (ip), evaluated on day 45): 188 % of control
T/C (dose: 180.0 mg/kg/injection, schedule: Q01DX001 (ip), evaluated on day 46): 189 % of control
T/C (dose: 180.0 mg/kg/injection, schedule: Q01DX001 (ip), evaluated on day 59): 172 % of control
T/C (dose: 180.0 mg/kg/injection, schedule: Q01DX001 (ip), evaluated on day 60): 200 % of control
T/C (dose: 180.0 mg/kg/injection, schedule: Q01DX001 (ip), evaluated on day 62): 250 % of control
T/C (dose: 180.0 mg/kg/injection, schedule: Q01DX001 (ip), evaluated on day 69): 272 % of control
T/C (dose: 180.0 mg/kg/injection, schedule: Q01DX001 (ip), evaluated on day 90): 205 % of control
T/C (dose: 180.0 mg/kg/injection, schedule: Q07DX003 (ip), evaluated on day 7): 213, 240, 288 % of control
T/C (dose: 180.0 mg/kg/injection, schedule: Q07DX003 (ip), evaluated on day 32): 213 and 240 % of control
T/C (dose: 180.0 mg/kg/injection, schedule: Q07DX003 (ip), evaluated on day 46): 289 % of control
T/C (dose: 180.0 mg/kg/injection, schedule: Q07DX004 (ip), evaluated on day 7): 269 and 336 % of control
T/C (dose: 180.0 mg/kg/injection, schedule: Q07DX004 (ip), evaluated on day 60): 277 and 327 % of control
T/C (dose: 200.0 mg/kg/injection, schedule: Q01DX001 (ip), evaluated on day 7): 165, 173, 182, 197, 198 (3×), 205, 215, 223, 236, 237, 259, 285 % of control
T/C (dose: 200.0 mg/kg/injection, schedule: Q01DX001 (ip), evaluated on day 26): 165 % of control
T/C (dose: 200.0 mg/kg/injection, schedule: Q01DX001 (ip), evaluated on day 30): 121, 311, 337 % of control
T/C (dose: 200.0 mg/kg/injection, schedule: Q01DX001 (ip), evaluated on day 35): 197 % of control
T/C (dose: 200.0 mg/kg/injection, schedule: Q01DX001 (ip), evaluated on day 43): 180 % of control
T/C (dose: 200.0 mg/kg/injection, schedule: Q01DX001 (ip), evaluated on day 44): 140 % of control
T/C (dose: 200.0 mg/kg/injection, schedule: Q01DX001 (ip), evaluated on day 45): 200 % of control
T/C (dose: 200.0 mg/kg/injection, schedule: Q01DX001 (ip), evaluated on day 60): 238 % of control
T/C (dose: 200.0 mg/kg/injection, schedule: Q01DX001 (ip), evaluated on day 62): 285 % of control
T/C (dose: 200.0 mg/kg/injection, schedule: Q01DX001 (ip), evaluated on day 63): 215 and 223 % of control
T/C (dose: 200.0 mg/kg/injection, schedule: Q01DX001 (ip), evaluated on day 64): 240 % of control
T/C (dose: 200.0 mg/kg/injection, schedule: Q08DX002 (ip), evaluated on day 7): 192, 217, 300 % of control
T/C (dose: 200.0 mg/kg/injection, schedule: Q08DX002 (ip), evaluated on day 43): 190 % of control
T/C (dose: 200.0 mg/kg/injection, schedule: Q08DX002 (ip), evaluated on day 44): 210 % of control
T/C (dose: 200.0 mg/kg/injection, schedule: Q08DX002 (ip), evaluated on day 46): 300 % of control
T/C (dose: 300.0 mg/kg/injection, schedule: Q01DX001 (ip), evaluated on day 5): 240, 364, 507, 653 % of control
T/C (dose: 300.0 mg/kg/injection, schedule: Q01DX001 (ip), evaluated on day 7): 218, 258, 260, 282, 651, 727, 729 % of control
T/C (dose: 300.0 mg/kg/injection, schedule: Q01DX001 (ip), evaluated on day 36): 255 % of control
T/C (dose: 300.0 mg/kg/injection, schedule: Q01DX001 (ip), evaluated on day 45): 500 % of control
